Measurements reported in the supplement of paper PMC10849652.
This is one part of the list. Residues, ends and D or L forms follow the SMILES beside them. *: point of attachment. Cbz = O=C(OCc1ccccc1)*

By UniProt entry, the sequences of proteins in these tests, tags left out. Where a name states a change or a piece, a line headed by the entry shows the natural chain unless it says otherwise.
UniProt Q8WUM4: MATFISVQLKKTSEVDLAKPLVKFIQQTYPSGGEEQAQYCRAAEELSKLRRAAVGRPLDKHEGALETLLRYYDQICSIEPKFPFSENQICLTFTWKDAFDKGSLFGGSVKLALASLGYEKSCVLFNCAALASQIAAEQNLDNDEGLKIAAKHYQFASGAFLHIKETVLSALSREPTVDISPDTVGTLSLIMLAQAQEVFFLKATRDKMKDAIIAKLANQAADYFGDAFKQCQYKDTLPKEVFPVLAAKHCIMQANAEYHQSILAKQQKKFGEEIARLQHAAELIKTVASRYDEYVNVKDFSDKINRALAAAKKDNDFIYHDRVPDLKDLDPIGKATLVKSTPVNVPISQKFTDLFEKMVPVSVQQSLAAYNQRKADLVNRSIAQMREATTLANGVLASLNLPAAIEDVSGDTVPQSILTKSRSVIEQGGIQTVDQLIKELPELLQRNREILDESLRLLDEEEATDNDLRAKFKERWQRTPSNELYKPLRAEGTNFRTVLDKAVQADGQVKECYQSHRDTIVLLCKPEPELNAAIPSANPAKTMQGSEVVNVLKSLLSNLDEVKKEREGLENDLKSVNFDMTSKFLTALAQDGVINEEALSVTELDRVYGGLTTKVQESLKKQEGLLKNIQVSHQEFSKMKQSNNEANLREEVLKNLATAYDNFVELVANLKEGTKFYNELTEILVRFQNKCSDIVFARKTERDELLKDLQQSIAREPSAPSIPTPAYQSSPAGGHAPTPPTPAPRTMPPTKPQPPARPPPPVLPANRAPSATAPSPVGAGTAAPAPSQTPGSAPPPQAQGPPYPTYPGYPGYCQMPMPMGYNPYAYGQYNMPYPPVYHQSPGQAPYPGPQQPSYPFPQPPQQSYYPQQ
UniProt P51160: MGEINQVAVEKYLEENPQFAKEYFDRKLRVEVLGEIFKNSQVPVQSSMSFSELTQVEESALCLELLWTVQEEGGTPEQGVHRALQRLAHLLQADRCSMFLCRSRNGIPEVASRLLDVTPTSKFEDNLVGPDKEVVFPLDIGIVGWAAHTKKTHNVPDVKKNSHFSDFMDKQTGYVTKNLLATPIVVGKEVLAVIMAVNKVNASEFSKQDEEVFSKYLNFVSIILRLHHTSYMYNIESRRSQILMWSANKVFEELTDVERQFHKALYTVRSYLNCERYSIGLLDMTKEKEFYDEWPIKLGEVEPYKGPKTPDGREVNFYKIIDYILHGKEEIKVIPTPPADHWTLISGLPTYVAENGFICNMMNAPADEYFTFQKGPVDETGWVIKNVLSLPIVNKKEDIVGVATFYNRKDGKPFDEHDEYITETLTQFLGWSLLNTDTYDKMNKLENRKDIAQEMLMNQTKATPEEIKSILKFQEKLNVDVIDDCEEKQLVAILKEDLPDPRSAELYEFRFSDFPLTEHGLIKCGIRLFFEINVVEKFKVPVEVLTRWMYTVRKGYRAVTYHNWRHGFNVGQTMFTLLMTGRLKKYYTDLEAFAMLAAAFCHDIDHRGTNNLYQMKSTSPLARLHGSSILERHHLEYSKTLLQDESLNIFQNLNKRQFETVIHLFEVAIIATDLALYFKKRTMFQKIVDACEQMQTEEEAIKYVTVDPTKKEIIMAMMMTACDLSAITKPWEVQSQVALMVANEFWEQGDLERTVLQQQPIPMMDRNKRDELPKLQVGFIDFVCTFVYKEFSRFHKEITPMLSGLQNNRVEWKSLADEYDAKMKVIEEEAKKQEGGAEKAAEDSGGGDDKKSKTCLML
UniProt O96011, whole entry, looked up, stated change not applied: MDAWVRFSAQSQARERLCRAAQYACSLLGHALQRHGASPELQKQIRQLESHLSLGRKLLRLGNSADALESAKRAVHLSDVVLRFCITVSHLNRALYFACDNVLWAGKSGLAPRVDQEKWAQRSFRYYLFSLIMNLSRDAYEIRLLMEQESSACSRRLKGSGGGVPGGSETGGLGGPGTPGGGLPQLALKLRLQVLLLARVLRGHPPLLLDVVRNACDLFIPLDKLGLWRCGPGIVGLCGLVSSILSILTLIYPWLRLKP
UniProt P11498: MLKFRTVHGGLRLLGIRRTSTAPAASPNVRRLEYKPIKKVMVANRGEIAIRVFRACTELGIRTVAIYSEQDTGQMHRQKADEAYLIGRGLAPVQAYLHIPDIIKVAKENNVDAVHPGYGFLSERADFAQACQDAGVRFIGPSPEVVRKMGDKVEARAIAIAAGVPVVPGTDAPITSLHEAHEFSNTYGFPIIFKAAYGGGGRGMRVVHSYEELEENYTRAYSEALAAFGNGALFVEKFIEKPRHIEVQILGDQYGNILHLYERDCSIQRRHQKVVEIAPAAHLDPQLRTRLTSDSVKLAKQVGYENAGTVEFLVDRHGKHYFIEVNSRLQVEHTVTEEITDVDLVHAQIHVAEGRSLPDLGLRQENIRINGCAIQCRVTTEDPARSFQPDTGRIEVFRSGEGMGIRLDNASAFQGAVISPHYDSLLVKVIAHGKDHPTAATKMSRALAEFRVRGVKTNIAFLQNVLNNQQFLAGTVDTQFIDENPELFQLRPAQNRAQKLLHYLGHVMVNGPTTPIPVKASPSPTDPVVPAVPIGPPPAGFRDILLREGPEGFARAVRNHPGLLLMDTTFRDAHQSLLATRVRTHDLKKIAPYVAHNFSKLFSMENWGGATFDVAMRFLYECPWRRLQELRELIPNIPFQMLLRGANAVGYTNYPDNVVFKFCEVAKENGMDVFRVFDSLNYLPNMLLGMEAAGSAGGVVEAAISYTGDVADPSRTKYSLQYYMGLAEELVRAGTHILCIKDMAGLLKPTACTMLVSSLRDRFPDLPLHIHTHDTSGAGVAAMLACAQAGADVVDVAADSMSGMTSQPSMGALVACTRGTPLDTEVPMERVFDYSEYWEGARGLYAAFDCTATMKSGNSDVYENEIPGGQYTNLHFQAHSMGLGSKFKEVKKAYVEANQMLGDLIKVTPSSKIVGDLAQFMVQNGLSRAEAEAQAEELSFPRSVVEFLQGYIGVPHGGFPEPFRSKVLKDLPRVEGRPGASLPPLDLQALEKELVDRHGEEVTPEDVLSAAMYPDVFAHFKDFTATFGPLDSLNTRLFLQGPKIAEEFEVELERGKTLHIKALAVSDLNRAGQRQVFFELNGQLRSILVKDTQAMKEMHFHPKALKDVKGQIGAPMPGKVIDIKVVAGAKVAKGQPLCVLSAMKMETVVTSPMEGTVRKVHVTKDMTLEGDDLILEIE
UniProt O43924: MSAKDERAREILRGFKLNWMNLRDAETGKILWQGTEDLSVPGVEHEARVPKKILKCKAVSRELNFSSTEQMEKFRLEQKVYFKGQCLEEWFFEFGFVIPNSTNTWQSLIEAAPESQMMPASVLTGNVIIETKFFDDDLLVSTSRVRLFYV
UniProt Q6L8Q7: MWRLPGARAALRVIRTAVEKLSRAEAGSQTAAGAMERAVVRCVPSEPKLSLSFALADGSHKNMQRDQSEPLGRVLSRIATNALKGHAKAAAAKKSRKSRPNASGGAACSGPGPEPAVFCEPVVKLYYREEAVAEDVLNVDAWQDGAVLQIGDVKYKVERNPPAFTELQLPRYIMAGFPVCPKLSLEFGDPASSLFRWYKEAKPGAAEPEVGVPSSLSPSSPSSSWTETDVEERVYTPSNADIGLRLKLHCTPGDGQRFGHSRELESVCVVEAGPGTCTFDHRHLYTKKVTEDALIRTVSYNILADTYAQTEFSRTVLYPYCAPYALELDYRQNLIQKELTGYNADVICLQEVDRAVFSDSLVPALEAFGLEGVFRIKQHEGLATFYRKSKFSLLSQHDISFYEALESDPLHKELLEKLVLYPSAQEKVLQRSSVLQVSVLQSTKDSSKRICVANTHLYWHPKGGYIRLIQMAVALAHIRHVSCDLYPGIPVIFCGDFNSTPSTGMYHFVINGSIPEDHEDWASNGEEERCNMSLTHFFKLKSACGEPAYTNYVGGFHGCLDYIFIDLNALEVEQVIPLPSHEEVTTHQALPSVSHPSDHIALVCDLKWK
UniProt P27815: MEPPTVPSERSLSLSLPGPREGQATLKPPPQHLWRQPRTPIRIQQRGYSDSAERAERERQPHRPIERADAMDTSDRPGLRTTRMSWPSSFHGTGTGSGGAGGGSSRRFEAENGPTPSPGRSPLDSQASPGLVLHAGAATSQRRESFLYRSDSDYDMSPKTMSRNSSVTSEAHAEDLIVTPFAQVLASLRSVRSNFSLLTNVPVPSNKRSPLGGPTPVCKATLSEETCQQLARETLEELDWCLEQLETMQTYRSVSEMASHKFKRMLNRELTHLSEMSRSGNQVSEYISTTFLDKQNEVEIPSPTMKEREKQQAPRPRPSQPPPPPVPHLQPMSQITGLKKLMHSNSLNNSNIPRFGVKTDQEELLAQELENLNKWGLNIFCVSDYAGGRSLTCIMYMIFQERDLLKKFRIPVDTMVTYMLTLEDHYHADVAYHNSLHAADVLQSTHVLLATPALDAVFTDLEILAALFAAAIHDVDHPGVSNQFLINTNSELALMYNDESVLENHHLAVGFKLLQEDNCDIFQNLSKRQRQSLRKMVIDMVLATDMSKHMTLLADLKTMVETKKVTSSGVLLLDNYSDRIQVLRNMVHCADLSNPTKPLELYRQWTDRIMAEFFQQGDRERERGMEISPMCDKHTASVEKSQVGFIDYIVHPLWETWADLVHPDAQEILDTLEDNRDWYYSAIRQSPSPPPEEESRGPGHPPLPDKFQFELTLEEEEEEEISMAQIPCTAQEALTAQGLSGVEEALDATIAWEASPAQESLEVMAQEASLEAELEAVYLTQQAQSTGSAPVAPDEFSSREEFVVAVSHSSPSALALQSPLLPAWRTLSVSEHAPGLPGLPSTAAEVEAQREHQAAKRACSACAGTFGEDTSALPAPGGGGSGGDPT
UniProt H7BZJ3: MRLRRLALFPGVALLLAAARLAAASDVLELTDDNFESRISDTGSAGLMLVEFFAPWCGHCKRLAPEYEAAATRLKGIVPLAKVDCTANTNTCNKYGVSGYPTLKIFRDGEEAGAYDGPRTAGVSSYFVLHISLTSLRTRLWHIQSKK
UniProt Q15121, whole entry, looked up: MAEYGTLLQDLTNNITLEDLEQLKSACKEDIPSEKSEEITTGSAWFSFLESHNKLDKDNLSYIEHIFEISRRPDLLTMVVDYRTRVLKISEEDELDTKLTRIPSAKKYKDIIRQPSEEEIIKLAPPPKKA
UniProt Q9NR12, whole entry, looked up: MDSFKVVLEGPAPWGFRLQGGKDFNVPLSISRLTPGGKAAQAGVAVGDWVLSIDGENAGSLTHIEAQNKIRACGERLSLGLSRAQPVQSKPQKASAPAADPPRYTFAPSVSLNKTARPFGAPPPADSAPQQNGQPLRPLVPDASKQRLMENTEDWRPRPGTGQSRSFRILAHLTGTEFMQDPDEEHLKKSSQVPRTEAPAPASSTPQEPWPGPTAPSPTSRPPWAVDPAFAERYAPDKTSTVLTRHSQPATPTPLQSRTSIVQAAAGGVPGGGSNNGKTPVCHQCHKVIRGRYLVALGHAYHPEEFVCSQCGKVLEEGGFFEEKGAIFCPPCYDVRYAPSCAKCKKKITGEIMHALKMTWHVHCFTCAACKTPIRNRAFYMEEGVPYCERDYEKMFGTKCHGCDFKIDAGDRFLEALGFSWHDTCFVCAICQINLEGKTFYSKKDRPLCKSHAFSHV
UniProt Q96MG8: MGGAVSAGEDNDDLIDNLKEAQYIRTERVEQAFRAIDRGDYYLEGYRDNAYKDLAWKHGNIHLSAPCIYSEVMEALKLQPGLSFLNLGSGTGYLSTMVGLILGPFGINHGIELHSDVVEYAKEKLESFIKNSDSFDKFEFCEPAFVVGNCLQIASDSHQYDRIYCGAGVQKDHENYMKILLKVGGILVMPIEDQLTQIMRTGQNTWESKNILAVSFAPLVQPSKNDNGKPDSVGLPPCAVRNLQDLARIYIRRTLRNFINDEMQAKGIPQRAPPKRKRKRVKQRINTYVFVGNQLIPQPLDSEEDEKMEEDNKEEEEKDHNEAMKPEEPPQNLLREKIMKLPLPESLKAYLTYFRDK

Columns and labels:
Test in all cases: log2 fold change, soluble protein after heating vs DMSO (PISA); higher = thermal stabilisation; K562 cells, 10 uM, 30 min; active = over 0.2 and 3.5 SD of the protein, either way, in both replicates (recomputed)
[1] = compound: C1COCCN1CCN2C3=CC=CC=C3N=C2NC(=O)C4=CC(=CC=C4)[N+](=O)[O-] [IRAK-1-4 Inhibitor I]
In short: (§1)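 Soluble protein was defined as the supernatant after 21,000xg for 90 min. It came from K562 cells at 2×10^6 cells/mL given 10 μM compound for 30 min, heated in aliquots for 3 min across 48°C-58°C, pooled, and extracted in PBS with 0.5% NP-40 at 4°C, and was quantified by TMTpro 16plex LC-MS/MS with equalised channel sums. Thermal stability against control samples, from duplicates, is reported as log2 fold change.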

[2] = compound: C=CC(=O)N1CCC[C@@H](n2nc(-c3ccc(Oc4ccccc4)cc3)c3c(N)ncnc32)C1 [ibrutinib]
In short: as §1

[3] = compound: CC(=O)c1cnc2ccc(-c3cc(Cl)c(O)c(Cl)c3)nc2c1N[C@H]1CC[C@H](CN(C)C)CC1
In short: as §1

[4] = compound: CC(C)(C)Cn1c(N)nc2ccc(-c3[nH]c(C(C)(C)C)nc3-c3ccc(F)cc3)nc21 [ralimetinib]
In short: as §1

[5] = compound: CC(C)(O)CC(=O)NCCn1ccc2ncnc(Nc3ccc(Oc4cccc(C(F)(F)F)c4)c(Cl)c3)c21
In short: as §1

[6] = compound: CC(C)C1=C2N=C(C=C(N2N=C1)NCC3=CC=CC=C3)NCCCCCCN
In short: as §1

[7] = compound: CC(C)C[C@@H](C=O)NC(=O)[C@H](CC(C)C)NC(=O)[C@H](CC(C)C)NC(=O)OCc1ccccc1
In short: as §1

[8] = compound: CC(C)N(C[C@H]1O[C@@H](n2cnc3c(N)ncnc32)[C@H](O)[C@@H]1O)[C@H]1C[C@@H](CCc2nc3cc(C(C)(C)C)ccc3[nH]2)C1 [pinometostat]
In short: as §1

[9] = compound: CC1=C(C2=C(C=C1)C(=O)C3=CC=CC=C3N2CCCN)C
In short: as §1

[10] = compound: CC1=C(C=C(C=C1)NC(=O)C2=CC(=CC=C2)C(C)(C)C#N)NC3=CC4=C(C=C3)N=CN(C4=O)C
In short: as §1

[11] = compound: CC1=C(C=C(C=C1)NC(=O)C2=CC(=CC=C2)N(C)C)NC(=O)C3=CC=C(C=C3)O
In short: as §1

[12] = compound: CC1=CC=C(C=C1)SC2=C3C=C(SC3=CN=C2)C(=O)N
In short: as §1

[13] = compound: CC1=NC(=CC=C1)C2=C(N=C(N2)C(C)(C)C)C3=CC4=NC=CN=C4C=C3
In short: as §1

[14] = compound: CCCCN(Cc1ccc(C(=O)NO)cc1)C(=O)Nc1ccccc1 [Nexturastat A]
In short: as §1

[15] = compound: CCCS(=O)(=O)Nc1ccc(F)c(C(=O)c2c[nH]c3ncc(-c4ccc(Cl)cc4)cc23)c1F [vemurafenib]
In short: as §1

[16] = compound: CCCS(=O)(=O)Nc1ccc(F)c(C(=O)c2c[nH]c3ncc(Cl)cc23)c1F
In short: as §1

[17] = compound: CCCc1cc(C)[nH]c(=O)c1CNC(=O)c1cc(-c2ccnc(N3CCN(C)CC3)c2)cc2c1cnn2C(C)C
In short: as §1

[18] = compound: CCN(CC)Cc1ccc2cc(COC(=O)Nc3ccc(C(=O)NO)cc3)ccc2c1 [givinostat]
In short: as §1

[19] = compound: CCN(CCCOc1ccc2c(Nc3cc(CC(=O)Nc4cccc(F)c4)[nH]n3)ncnc2c1)CCOP(=O)(O)O [barasertib]
In short: as §1

[20] = compound: CC1=C(C(CC(=O)N1)C2=CC=C(C=C2)C(F)(F)F)C(=O)NC3=C(C=C4C(=C3)C=NN4)F
In short: as §1

Measured: log2 fold change

PDCD6IP (UniProt Q8WUM4)
inactive: [1] -0.156 | [2] -0.11 | [3] -0.039 | [4] 0.046 | [5] -0.198 | [6] -0.327 | [7] 0.019 | [8] 0.084 | [9] 0.044 | [10] 0.032 | [11] -0.079 | [12] 0.077 | [13] 0.058 | [14] 0.066 | [15] 0.106 | [16] 0.153 | [17] 0.119 | [18] 0.183 | [19] 0.135

PDE6C (UniProt P51160)
inactive: [1] -0.072 | [2] -0.163 | [3] -0.091 | [4] 0 | [7] -0.049 | [8] 0.026 | [20] 0.067 | [9] 0.024 | [10] -0.001 | [11] 0.058 | [12] 0.008 | [13] 0.171 | [15] 0.007 | [16] 0.052 | [17] -0.201 | [19] -0.028

PEX11B (UniProt O96011)
inactive: [1] 0.025 | [2] 0.04 | [3] 0.032 | [4] 0.005 | [5] 0.008 | [6] 0.075 | [7] -0.058 | [8] -0.031 | [9] 0.012 | [10] 0.06 | [11] -0.039 | [12] 0.321 | [13] -0.008 | [14] -0.076 | [15] 0.08 | [16] 0 | [17] 0.029 | [18] 0.008 | [19] -0.002

PC (UniProt P11498)
inactive: [1] -0.024 | [2] 0.04 | [3] -0.151 | [4] -0.02 | [5] -0.038 | [6] 0.183 | [7] -0.037 | [8] -0.016 | [9] 0.15 | [10] 0.07 | [11] -0.103 | [12] 0.038 | [13] 0.012 | [14] -0.07 | [15] 0 | [16] 0.032 | [17] 0.039 | [18] 0.022 | [19] 0.009

PDE6D (UniProt O43924)
inactive: [1] 0.037 | [2] 0.086 | [3] -0.051 | [5] 0.003 | [6] 0.164 | [8] 0.017 | [9] -0.01 | [10] -0.081 | [13] -0.117 | [14] 0.15 | [15] -0.022 | [17] -0.028 | [18] -0.052 | [19] 0.002

PDE12 (UniProt Q6L8Q7)
inactive: [1] 0.118 | [2] 0.015 | [3] 0.085 | [4] -0.036 | [5] -0.006 | [6] -0.032 | [7] 0.03 | [8] -0.031 | [9] 0.033 | [10] 0.049 | [11] 0.006 | [12] 0.024 | [13] 0.026 | [14] -0.064 | [15] -0.006 | [16] 0.03 | [17] -0.01 | [18] -0.027 | [19] 0.014

PDE4A (UniProt P27815)
inactive: [1] 0 | [2] 0.249 | [3] 0.077 | [4] -0.056 | [5] 0.106 | [6] 0.029 | [7] 0.04 | [8] 0.019 | [9] -0.077 | [11] -0.028 | [12] -0.047 | [13] 0.062 | [14] 0.061 | [15] 0.006 | [16] 0.024 | [18] 0.015 | [19] 0.049

PDIA3 (UniProt H7BZJ3)
inactive: [1] -0.045 | [2] -0.023 | [3] -0.014 | [5] 0.124 | [6] 0.006 | [8] 0.026 | [20] -0.042 | [9] 0.174 | [10] -0.16 | [12] -0.129 | [13] -0.175 | [14] 0.091 | [15] -0.184 | [16] -0.222 | [17] 0.024 | [18] 0.123 | [19] 0.033

PEA15 isoform 2 (UniProt Q15121)
inactive: [1] 0.025 | [2] -0.024 | [3] 0.054 | [4] 0.007 | [5] -0.079 | [6] -0.045 | [7] -0.046 | [8] -0.004 | [9] 0.038 | [10] 0.004 | [11] -0.039 | [12] 0.042 | [13] -0.008 | [14] -0.071 | [15] 0.002 | [16] 0.122 | [17] -0.003 | [18] 0.003 | [19] 0.082

PDLIM7 (UniProt Q9NR12)
inactive: [1] 0.017 | [2] 0.005 | [3] -0.054 | [4] 0.08 | [5] -0.035 | [6] 0.024 | [7] -0.045 | [8] -0.019 | [9] 0.065 | [10] 0.02 | [11] -0.029 | [12] -0.002 | [13] 0.046 | [14] -0.016 | [15] 0.026 | [16] 0.032 | [17] 0.001 | [18] 0.05 | [19] 0.032

3 successive entries from above, quoted:
PDIA3 (UniProt H7BZJ3)
inactive: [1] -0.045 | [2] -0.023 | [3] -0.014 | [5] 0.124 | [6] 0.006 | [8] 0.026 | [20] -0.042 | [9] 0.174 | [10] -0.16 | [12] -0.129 | [13] -0.175 | [14] 0.091 | [15] -0.184 | [16] -0.222 | [17] 0.024 | [18] 0.123 | [19] 0.033

PEA15 isoform 2 (UniProt Q15121)
inactive: [1] 0.025 | [2] -0.024 | [3] 0.054 | [4] 0.007 | [5] -0.079 | [6] -0.045 | [7] -0.046 | [8] -0.004 | [9] 0.038 | [10] 0.004 | [11] -0.039 | [12] 0.042 | [13] -0.008 | [14] -0.071 | [15] 0.002 | [16] 0.122 | [17] -0.003 | [18] 0.003 | [19] 0.082

PDLIM7 (UniProt Q9NR12)
inactive: [1] 0.017 | [2] 0.005 | [3] -0.054 | [4] 0.08 | [5] -0.035 | [6] 0.024 | [7] -0.045 | [8] -0.019 | [9] 0.065 | [10] 0.02 | [11] -0.029 | [12] -0.002 | [13] 0.046 | [14] -0.016 | [15] 0.026 | [16] 0.032 | [17] 0.001 | [18] 0.05 | [19] 0.032

(further entries)

PAFAH2 (UniProt Q99487)
inactive: [1] 0.106 | [2] 0.048 | [3] -0.012 | [4] -0.033 | [6] 0.025 | [7] 0.007 | [8] -0.011 | [9] 0.02 | [10] -0.09 | [11] 0.006 | [12] 0.019 | [13] -0.038 | [15] 0.093 | [16] -0.015 | [18] 0.059 | [19] -0.044

PCMTD1 (UniProt Q96MG8)
inactive: [1] 0.122 | [2] -0.065 | [4] 0.271 | [5] -0.12 | [7] 0.012 | [8] 0.196 | [20] -0.026 | [11] 0.002 | [13] -0.098 | [14] -0.113 | [19] -0.228
